Source: PubChem BioAssay AID540275 (National Center for Advancing Translational Sciences (NCATS), 2011)
Among all 320,000 compounds or so, about 620 (0.19%) were called active. Inconclusive means that the source gave no clear call. Such entries were picked first, then a sample of the others. Rule as the data show it: active = activation above about 80%; inconclusive = between about 30% and that limit; inactive = weaker than that.

Sequences of proteins named here, by UniProt entry; tags and fusion partners are left off.
UniProt Q8NER1, whole entry, looked up: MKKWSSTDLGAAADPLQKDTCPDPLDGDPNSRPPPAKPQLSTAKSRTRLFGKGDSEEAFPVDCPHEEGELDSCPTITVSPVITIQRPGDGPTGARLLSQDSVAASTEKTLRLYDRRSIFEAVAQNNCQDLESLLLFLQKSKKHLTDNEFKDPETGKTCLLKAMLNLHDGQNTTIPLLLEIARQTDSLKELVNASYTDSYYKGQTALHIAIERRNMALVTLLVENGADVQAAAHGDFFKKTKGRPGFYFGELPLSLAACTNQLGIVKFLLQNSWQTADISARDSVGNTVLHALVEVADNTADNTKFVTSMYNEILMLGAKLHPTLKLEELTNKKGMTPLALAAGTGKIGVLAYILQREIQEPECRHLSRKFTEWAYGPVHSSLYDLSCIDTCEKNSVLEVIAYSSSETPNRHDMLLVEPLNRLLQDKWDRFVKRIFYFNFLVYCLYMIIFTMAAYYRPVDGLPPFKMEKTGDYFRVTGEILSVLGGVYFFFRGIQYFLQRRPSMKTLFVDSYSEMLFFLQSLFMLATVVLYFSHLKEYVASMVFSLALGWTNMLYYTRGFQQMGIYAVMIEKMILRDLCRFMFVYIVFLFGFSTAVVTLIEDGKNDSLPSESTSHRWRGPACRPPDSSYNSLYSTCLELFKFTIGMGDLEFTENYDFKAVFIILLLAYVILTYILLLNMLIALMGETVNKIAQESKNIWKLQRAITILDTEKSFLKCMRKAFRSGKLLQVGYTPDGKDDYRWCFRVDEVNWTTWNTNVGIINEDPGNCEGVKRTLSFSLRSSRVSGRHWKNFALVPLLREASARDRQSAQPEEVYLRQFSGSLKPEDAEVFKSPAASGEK

What follows are molecules tested against Transient receptor potential cation channel subfamily V member 1 (Homo sapiens) (UniProt Q8NER1) (assay: HTS Assay for Compounds that Act as Agonists of the Vanilloid Receptor 1). Conditions: TRPV1-expressing cells, Fluo-8 calcium influx, agonist mode; at 8.33 µM, hits give high values.
In short: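 TRPV1-expressing cells were cultured overnight at 35.5C and loaded with Fluo-8 calcium dye for 40 to 90 min at room temperature. After a 10 s baseline, compound was added and calcium influx was read kinetically for 3 min (ex 480/em 520 nm).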
Also: 0% is about no effect.

Structure (SMILES) | activation
CC(C)[C@H](NC(=O)c1ccccc1)C(=O)OCC(=O)Nc1ccc(Cl)cc1C(F)(F)F | inconclusive: 31.3%
C=CCN1C(c2ccc(OCC)cc2)=CS/C1=C(\C#N)c1nnc2n1CCCCC2 | inactive: 4.52%
O=C(Nc1cccc(F)c1)c1ccc(S(=O)(=O)N2CCOCC2)cc1 | inconclusive: 52.7%
CCOc1ccc(Nc2nc(N)nc(CN3CCN(c4ccccc4F)CC3)n2)cc1 | inactive: -5.53%
COc1cc(NC(=O)Cc2ccccc2)ccc1NC(=O)c1ccccc1 | inconclusive: 31.6%
CCn1c(=O)n(CC)c2cc(S(=O)(=O)N3CCc4ccccc43)ccc21 | inactive: 11.3%
CCOC(=O)C1=C(C)NC2=C(C(=O)CC(C)(C)C2)C1c1cccc(C)n1 (stereo unspecified) | inactive: 0.728%
Cc1ccc(NC(=S)NCCSc2ccc(Cl)cc2)cc1 | inconclusive: 67.7%
CN(c1cccc(Cl)c1)S(=O)(=O)c1cccc(C(=O)NCc2ccncc2)c1 | inconclusive: 54.7%
CC(C)(C)c1ccc(-c2csc(NNC3=NCCCCC3)n2)cc1 | inconclusive: 41.3%
O=C(Nc1ccc2c(c1)OCO2)c1c(F)c(F)c(F)c(F)c1F | inconclusive: 32.5%
COC(=O)c1ccc(NC(=O)Nc2ccc(F)cc2)cc1 | inconclusive: 40.2%
CC(C)(C)C(=O)N1NC(=Nc2ccccc2)SC1(C)C | inconclusive: 39.1%
Cc1ccc[n+](CC(=O)Nc2c(Cl)cc(Cl)cc2Cl)c1 | inactive: 3.33%
CC1CCC(NC(=O)COC(=O)CNC(=O)c2ccc3ccccc3c2)CC1 (stereo unspecified) | inactive: 12.1%
O=C(NCCc1cccc(Cl)c1)c1ccc(Cl)c([N+](=O)[O-])c1 | inconclusive: 42.6%
Cc1ccc(C)c(NC(=O)CCC(=O)NNC(=S)Nc2ccccc2)c1 | inactive: -0.913%
CC(=O)Nc1cccc(Oc2ncnc3scc(-c4ccc(C(C)C)cc4)c23)c1 | inconclusive: 42.2%
Cc1nc(N2CCOCC2)c2c(C)c(C(=O)Nc3ccccc3Cl)sc2n1 | inconclusive: 48.4%
CCOC(=O)C(=NC1CCCCC1)NNc1cccc(C(F)(F)F)c1 | inconclusive: 30.1%
COc1ccc(OCCNC(=O)/C=C/c2ccccc2)cc1 | inconclusive: 45.7%
CN(CC(=O)NC(=O)NC1CCCCC1)CC(=O)Nc1ccc(OC(F)(F)F)cc1 | inconclusive: 31.8%
COc1ccc(NC(=O)/C=C/c2cccc(C(F)(F)F)c2)cn1 | inconclusive: 65.6%

Structures above that contain a thiophene ring, fused or not, in the order listed:
Structure (SMILES) | activation
CC(=O)Nc1cccc(Oc2ncnc3scc(-c4ccc(C(C)C)cc4)c23)c1 | inconclusive: 42.2%
Cc1nc(N2CCOCC2)c2c(C)c(C(=O)Nc3ccccc3Cl)sc2n1 | inconclusive: 48.4%

The listing continues.

Structure (SMILES) | activation
CC(/C=C/c1ccc(N(C)C)cc1)=N\N=C(/N)SC1CC(=O)N(c2ccc(C(=O)O)cc2)C1=O (stereo unspecified) | inconclusive: 32.8%
O=c1c2ccccc2c(-c2n[nH]c(=S)o2)nn1Cc1ccccc1 | inactive: 13.3%
Cc1cccc(N2CCN(C(=O)/C=C/c3ccco3)CC2)c1C | inconclusive: 57.5%
Cc1cc(C)c(C(=O)CSc2n[nH]c(=O)n2C2CC2)cc1C | inconclusive: 49.9%
O=C(NNC(=S)NC(=O)c1cccnc1)c1ccc(F)cc1 | inactive: -0.831%
O=C(COC(=O)CSCc1ccccc1)NCc1ccccc1 | inconclusive: 35.4%
COc1ccc(CCNC(=O)C(C)SCc2ccccc2)cc1 (stereo unspecified) | inconclusive: 38.7%
O=C(Nc1cccc(O)c1)c1cccc(S(=O)(=O)N2CCCCCC2)c1 | inconclusive: 59.1%
Cc1ccc(C(=O)NC(=S)N2CCN(c3cc(C)ccc3C)CC2)cc1 | inconclusive: 37.6%
Cc1ccc(S(=O)(=O)Nc2cc(C(F)(F)F)ccc2N2CCOCC2)cc1C | inactive: 28%
Cc1ccc(NC(=O)c2cccc(S(=O)(=O)N3CCc4ccccc4C3)c2)nc1 | inactive: 0.749%
CC(O)c1nc2ccccc2n1CCCOc1ccccc1 (stereo unspecified) | inconclusive: 34%
CC(C)(C)c1ccc2c(c1)OC(C(=O)N/N=C\c1ccc[nH]1)CO2 (stereo unspecified) | inconclusive: 73.1%
CC(CCc1ccccc1)NC(=O)/C=C/c1ccc(Cl)cc1 (stereo unspecified) | inconclusive: 60.2%
COc1ccc2cc(C(=O)C3CCCN(Cc4cnc(N5CCOCC5)s4)C3)ccc2c1 (stereo unspecified) | inconclusive: 31.5%
O=C(CC(c1ccccc1)c1ccccc1)Nc1ccncc1 | inconclusive: 59.2%
COc1cc(NC(=S)NC2CC2)c(OC)cc1Cl | inactive: 6.33%
C/C(=N\Nc1ccccn1)c1ccc(C#N)cc1 | inconclusive: 38.1%
Cc1cc(C)cc(N(C(=O)c2csnn2)C(C(=O)NC(C)(C)C)c2cccs2)c1 (stereo unspecified) | inconclusive: 37.1%
O=C(c1cc(COc2ccc(F)cc2Cl)on1)N1CCC(c2ccncc2)CC1 | active: 85.6%
NNC(=O)COc1cccc(Oc2ccccc2)c1 | inconclusive: 64.7%
Cc1ccc(OCCNC(=O)c2cncc(Br)c2)cc1C | inconclusive: 41.2%
O=C(NCc1cccc2ccccc12)c1cccs1 | inconclusive: 32.4%

Structure (SMILES) | activation
Cc1ccc(C(=O)NCCc2ccccc2)cc1S(=O)(=O)N1CCOCC1 | inconclusive: 36.7%
CSCc1ccc(C(=O)N2CCCC(Nc3ccc4c(c3)OCCO4)C2)o1 (stereo unspecified) | active: 91.5%
CCOC(=O)c1nn(-c2cccc(C)c2)cc1C(=O)c1ccccc1 | inconclusive: 34.6%
CCOC(=O)c1nnn(-c2nonc2N)c1COc1ccccc1 | inconclusive: 30.1%
CC(C)(C)c1ccccc1OCC(=O)NCCCn1ccnc1 | inactive: 13.8%
Cc1nc2c(C(=O)NCCC(C)C)c[nH]n2c(=O)c1Cl | inactive: 0.366%
CN(C)CCN(C(=O)c1ccc2ccccc2c1)c1nc2ccc(F)cc2s1 | inactive: 1.89%
O=C(Nc1ccc(N2CCCCC2)c(Cl)c1)c1ccc2c(c1)OCCO2 | inconclusive: 51.5%
CC1=NN(C(=O)Cc2ccccc2)C(O)(c2cccnc2)C1 (stereo unspecified) | inactive: 7.9%
CC1(C)NC(=O)N(CC(O)CN(Cc2ccccc2)Cc2ccccc2)C1=O (stereo unspecified) | active: 82.5%
CSc1cccc(CN2CCC(CO)(Cc3cccc(C(F)(F)F)c3)CC2)c1 | inconclusive: 35.6%
Cc1ccc(-n2c(Cl)c(Cl)nc(Cl)c2=O)cc1 | inactive: -0.768%
O=C(N/N=C/C1CC=CCC1)c1ccccc1O (stereo unspecified) | inactive: 6.87%
CCOc1ccc(C(=O)NCc2ccco2)cc1OC | inactive: -0.676%
O=C(Nc1ccccc1-c1ccccc1)C12CC3CC(CC(C3)C1)C2 | inconclusive: 32.4%
Cc1ccccc1OCCCc1c(C)n[nH]c1C | inconclusive: 38%
CS(=O)(=O)c1ccc2nc(NC(=O)c3ccc(Cn4cc(Br)cn4)o3)sc2c1 | inactive: 21.9%
COC(=O)c1ccc(/C=N/NC(=O)c2ccccc2Cl)cc1 | inconclusive: 42.1%
O=C(Cc1ccccc1)Nc1ccc(NC(=O)C2CCCCC2)nc1 | inactive: -2.03%
O=C(Nc1ccc(N2CCCC2)c(Cl)c1)c1ccccc1[N+](=O)[O-] | inconclusive: 31.7%
CCOc1ccc2c(=O)c(Oc3ccccc3OCC)coc2c1 | inactive: 0.758%
O=C(/C=C/c1cccc(Cl)c1)NCc1ccncc1 | inconclusive: 47.3%
NS(=O)(=O)c1ccc(CCN=C(NS(=O)(=O)c2cccs2)c2ccccc2)cc1 | inactive: 0.35%

Structure (SMILES) | activation
COc1ccc(NC(=O)C2COc3ccccc3O2)cc1 (stereo unspecified) | inconclusive: 48.6%
CCc1cc(C(=O)OC)c(NC(=O)CN2CCN(C(=O)c3ccco3)CC2)s1 | inconclusive: 38.3%
COC(=O)c1c(NC(=O)CN2CCN(C(=O)c3ccco3)CC2)c2c(C)cccc2n1C | inactive: -1.66%
CC(C)NC(=O)c1ccc(-n2nc(C(F)(F)F)c3c2CCCC3)cc1 | inconclusive: 58.1%
S=c1nc[nH]c2c1[nH]c1ccccc12 | inactive: -5.36%
CC1CCCN(CCCNC(=O)c2ccc(NC(=O)C3=CSCCO3)cc2)C1 (stereo unspecified) | inactive: 0.352%
COc1ccc(-c2cc(-c3cccs3)c(C#N)c(SCC(=O)NCc3ccccc3OC)n2)cc1 | inactive: -3.44%
CCOC(=O)c1cnc(SCC(=O)Nc2cc(C(F)(F)F)ccc2N2CCOCC2)nc1N | inconclusive: 30.1%
Nc1nonc1C(=O)NCCNCc1ccccc1OCc1ccc(F)cc1 | inconclusive: 37%
COc1ccccc1NC(=S)NCCc1ccc(F)cc1 | inconclusive: 49.8%
CC(C)(C)C(=O)N1CCN(c2ccc([N+](=O)[O-])cc2-n2cccc2)CC1 | inconclusive: 40.4%
Cc1cccc(C(=O)OCC(=O)c2ccc(CC(=O)N3CCOCC3)s2)c1C | inactive: 10.1%
CN(c1ccccc1)S(=O)(=O)c1cccc(C(=O)OCC(=O)NCc2ccco2)c1 | inconclusive: 36.3%
CC1=CC(C)(C)NC(=S)N1c1ccccc1C | inactive: 10.8%
CCN(CC)S(=O)(=O)c1ccc(-c2nnc(SCC(=O)N3c4ccccc4CC3C)n2CC)cc1 (stereo unspecified) | inactive: 0.55%
O=C(NC1CCCCCC1)c1ccc(=O)n(Cc2ccccc2)n1 | inactive: 18%
O=C(Nc1cccc(-c2nc3ccccc3o2)c1)c1cc([N+](=O)[O-])ccc1N1CCOCC1 | inactive: 8.27%
COc1ccc(CCNC(=S)Nc2cccc(C)c2C)cc1 | inactive: 13%
CC(C)(C)NC(=O)CN(Cc1cccs1)C(=O)C1COc2ccccc2O1 (stereo unspecified) | inconclusive: 49.9%
COc1ccc(-c2cc(C(F)(F)F)nc(-n3ccnc3C)n2)cc1 | inactive: -0.214%
CN(C(=O)CCc1nnc(CCCCc2ccccc2)o1)C1CC(C)(C)NC(C)(C)C1 | inactive: 4%
O=S(=O)(NCCc1ccncc1)c1ccc(S(=O)(=O)N2CCCCCC2)cc1 | inconclusive: 41.6%
